Source: PMC12597529, “Interaction between W41 of the hepatitis B virus preS1 surface peptide and Y146/F274 of the cellular receptor molecule Na^+/taurocholate co-transporting polypeptide is essential for virus entry” (Molecular Pharmacology, 2025)
Results are given in words; binding and its absence hold for the method and conditions named. Some binding calls cover weakened binding; strength is not graded here.

Amino acid sequences for entries named in this document (tags omitted).
UniProt Q14973: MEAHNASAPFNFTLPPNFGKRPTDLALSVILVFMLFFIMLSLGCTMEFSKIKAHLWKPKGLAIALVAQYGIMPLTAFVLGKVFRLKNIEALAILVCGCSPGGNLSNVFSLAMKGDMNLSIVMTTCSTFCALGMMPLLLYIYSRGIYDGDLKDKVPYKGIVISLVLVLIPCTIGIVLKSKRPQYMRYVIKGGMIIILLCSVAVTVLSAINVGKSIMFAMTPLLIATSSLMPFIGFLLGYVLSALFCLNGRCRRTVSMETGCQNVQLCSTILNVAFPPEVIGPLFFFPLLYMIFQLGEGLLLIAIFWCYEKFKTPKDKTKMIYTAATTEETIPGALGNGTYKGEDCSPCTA

Key:
[1] = target: human Na+/taurocholate co-transporting polypeptide, wild type, FLAG-tagged, on NTCPwt-HEK293 cells (human) (UniProt Q14973); experiment: competition for binding of a fluorescent peptide to cells, plate reader; NTCP-HEK293 cells preincubated 20 minutes at 37 °C with unlabelled wild-type or W41G myr-preS1 peptide at 250, 500 or 1000 nM, then myr-preS1-AX568 10 nM for 20 minutes at 37 °C; Spark reader; only the binder purified
[2] = target: human Na+/taurocholate co-transporting polypeptide, wild type, FLAG-tagged, on NTCPwt-HEK293 cells (human) (UniProt Q14973); experiment: binding of a fluorescent peptide to cells, plate reader; only the binder purified
[3] = target: human Na+/taurocholate co-transporting polypeptide, wild type, FLAG-tagged, on NTCPwt-HEK293 cells (human) (UniProt Q14973); experiment: fluorescence microscopy of a labelled peptide bound to cells; myr-preS1-AX568 at 10 nM for 10 minutes at 37 °C on tetracycline-induced NTCPwt-HEK293 and NTCP-Y146A/F274A-HEK293 cells; washed, fixed, nuclei stained with Hoechst 33342; only the binder purified

Measured: binding

C-terminally Alexa 568 fluorophore-coupled myr-preS1 peptide, amino acids 2 to 48 of the large HBV g (from UniProt P03138 2-48)
binds: all assays above
